These are yes or no findings as the source states them, for the method shown. Binding calls can cover weak binding; strength is not graded here. For some of these results: Binding seen in cells or lysates may run through a third protein.
Experiments:
[1] = molecular target: T1, PDZ domain 3 of PTPN13 (UniProt Q64512); test: peptide or protein array; 1 ug of hexahistidine-tagged PDZ domain fusion proteins spotted on nitrocellulose and dried overnight, overlaid with GST-alone, GST-calpain-1-CT or GST-calpain-2-CT (800 nM); HRP-coupled anti-GST antibody, chemiluminescence; both purified
T1 sequence: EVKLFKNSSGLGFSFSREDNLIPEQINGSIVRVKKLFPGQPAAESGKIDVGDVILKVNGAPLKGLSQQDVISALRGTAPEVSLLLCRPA

[2] = molecular target: T2, PDZ domain 4 of PTPN13 (UniProt Q64512); test: as above
T2 sequence: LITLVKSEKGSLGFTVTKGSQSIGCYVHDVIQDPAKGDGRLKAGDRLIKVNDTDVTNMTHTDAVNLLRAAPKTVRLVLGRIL

[3] = molecular target: T3, PDZ domain 5 of PTPN13 (UniProt Q64512); test: as above
T3 sequence: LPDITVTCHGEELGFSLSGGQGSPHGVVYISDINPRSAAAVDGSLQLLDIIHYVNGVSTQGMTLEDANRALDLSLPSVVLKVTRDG

[4] = molecular target: tyrosine phosphatase PTPN13 (mouse (endogenous in mouse brain)) (UniProt Q64512); test: co-IP; PTPN13 immunoprecipitated with anti-PTPN13 antibody from P2 homogenates of mouse brain under non-denaturing conditions (Pierce Classic IP Kit); rabbit IgG as negative control; with or without 10 uM calpain-2 C-terminal peptide for 1 h before co-IP

| binding [1] | binding [2] | binding [3] | binding [4] | Substance |
| --- | --- | --- | --- | --- |
| no binding (tested: 800 nM) | no binding (tested: 800 nM) | no binding (tested: 800 nM) |  | GST-calpain-1 C-terminus (domain or fragment) |
| binds | binds | binds |  | GST-calpain-2 C-terminus (domain or fragment) |
|  |  |  | binds | tau (from UniProt P10637-2) |

Reference: PMC5603515
